For at least one compound, name, drawing or mass did not settle the structure.
Experiments:
VIC = experiment: Calcification measurement (alizarin red staining) of VIC in pro-calcifying medium; assay type: cell-based; details: pro-calcifying medium for 7 days; pro-calcifying medium condition set at 1; retinoic acid 1; 10; 100 or 1000 nM, agonists 1 μM, DEAB 25 or 50 nM
[1] = test system: RUNX2 and MSX2 relative mRNA expression in VIC; experiment: Quantitative PCR of RUNX2 and MSX2 mRNA (osteoblast-like phenotype) in VIC in pro-calcifying medium; assay type: cell-based; details: pro-calcifying medium for 7 days; pro-calcifying medium condition set at 1; retinoic acid 1; 10; 100 or 1000 nM, agonists 1 μM, DEAB 25 or 50 nM

With `CC1=C(/C=C/C(C)=C/C=C/C(C)=C/C(=O)O)C(C)(C)CCC1` [retinoic acid] the “Calcification ratio of VIC” value (VIC) was “decreases” and the “osteoblast-like phenotype (RUNX2 and MSX2 relative mRNA expression)” value [1] was “decreases”.
